For the assay, the target named is BAF60a-BirA* fusion protein (UniProt Q61466). Description: proximity labelling; BioID-based proteomics in Min6 cells expressing BAF60a-BirA* fusion protein; mass spectrometry.

Amino acid sequences for entries named in this document (tags omitted).
UniProt Q61466: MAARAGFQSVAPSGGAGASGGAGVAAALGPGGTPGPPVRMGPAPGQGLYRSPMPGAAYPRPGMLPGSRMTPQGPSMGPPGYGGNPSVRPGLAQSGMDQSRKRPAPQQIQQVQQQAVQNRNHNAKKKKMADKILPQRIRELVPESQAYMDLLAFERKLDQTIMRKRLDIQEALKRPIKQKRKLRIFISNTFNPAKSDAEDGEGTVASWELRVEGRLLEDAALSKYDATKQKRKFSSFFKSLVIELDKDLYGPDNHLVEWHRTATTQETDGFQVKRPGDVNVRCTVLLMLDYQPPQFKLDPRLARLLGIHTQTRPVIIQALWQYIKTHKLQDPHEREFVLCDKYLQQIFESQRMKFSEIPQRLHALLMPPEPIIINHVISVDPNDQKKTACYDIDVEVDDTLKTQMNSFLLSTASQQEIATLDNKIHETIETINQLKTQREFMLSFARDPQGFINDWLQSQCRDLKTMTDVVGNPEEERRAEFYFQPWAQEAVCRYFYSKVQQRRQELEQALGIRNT
UniProt P97496: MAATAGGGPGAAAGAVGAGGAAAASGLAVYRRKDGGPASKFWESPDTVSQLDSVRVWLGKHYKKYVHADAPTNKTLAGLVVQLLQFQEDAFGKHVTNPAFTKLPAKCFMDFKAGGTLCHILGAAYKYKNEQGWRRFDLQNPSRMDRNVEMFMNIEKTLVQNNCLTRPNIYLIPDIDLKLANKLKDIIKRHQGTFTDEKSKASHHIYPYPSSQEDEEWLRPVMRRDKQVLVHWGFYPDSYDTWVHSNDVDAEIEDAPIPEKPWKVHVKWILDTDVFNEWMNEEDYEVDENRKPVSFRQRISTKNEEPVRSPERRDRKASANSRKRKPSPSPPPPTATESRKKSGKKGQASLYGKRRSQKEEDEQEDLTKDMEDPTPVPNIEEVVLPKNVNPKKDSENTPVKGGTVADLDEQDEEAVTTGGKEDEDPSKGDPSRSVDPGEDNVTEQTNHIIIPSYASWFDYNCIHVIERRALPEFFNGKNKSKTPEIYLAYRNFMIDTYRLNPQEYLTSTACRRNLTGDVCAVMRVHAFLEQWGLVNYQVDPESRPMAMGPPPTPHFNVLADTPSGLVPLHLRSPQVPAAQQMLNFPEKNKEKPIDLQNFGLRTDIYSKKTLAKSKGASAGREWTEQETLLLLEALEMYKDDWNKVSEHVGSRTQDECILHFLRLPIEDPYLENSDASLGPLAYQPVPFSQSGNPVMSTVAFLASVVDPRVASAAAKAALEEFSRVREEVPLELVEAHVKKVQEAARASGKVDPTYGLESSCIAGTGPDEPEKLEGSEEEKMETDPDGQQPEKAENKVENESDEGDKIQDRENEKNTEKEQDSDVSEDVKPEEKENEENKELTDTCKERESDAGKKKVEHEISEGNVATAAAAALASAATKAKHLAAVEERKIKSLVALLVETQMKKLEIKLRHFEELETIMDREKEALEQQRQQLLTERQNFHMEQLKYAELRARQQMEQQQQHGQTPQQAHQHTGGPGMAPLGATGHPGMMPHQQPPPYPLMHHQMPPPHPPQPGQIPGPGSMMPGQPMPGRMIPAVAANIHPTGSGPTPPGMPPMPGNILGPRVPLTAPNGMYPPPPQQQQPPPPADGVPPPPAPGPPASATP
UniProt P70288: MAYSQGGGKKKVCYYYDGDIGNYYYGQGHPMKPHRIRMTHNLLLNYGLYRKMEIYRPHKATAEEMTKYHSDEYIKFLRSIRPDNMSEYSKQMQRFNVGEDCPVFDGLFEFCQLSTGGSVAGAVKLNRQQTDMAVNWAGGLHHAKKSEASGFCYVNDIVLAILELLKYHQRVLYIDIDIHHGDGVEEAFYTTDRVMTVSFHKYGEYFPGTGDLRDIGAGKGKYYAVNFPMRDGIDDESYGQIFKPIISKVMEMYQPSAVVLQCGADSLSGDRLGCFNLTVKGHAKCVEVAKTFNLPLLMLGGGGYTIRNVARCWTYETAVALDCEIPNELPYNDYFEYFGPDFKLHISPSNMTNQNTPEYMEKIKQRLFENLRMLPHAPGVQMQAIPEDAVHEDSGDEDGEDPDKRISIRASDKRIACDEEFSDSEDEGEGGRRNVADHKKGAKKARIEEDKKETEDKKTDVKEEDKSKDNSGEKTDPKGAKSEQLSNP

These are yes or no findings as the source states them, for the method shown. Binding seen in cells or lysates may run through a third protein. A yes stands for co-enrichment or nearness to the bait. Other partners may have been found.

In PMC12646663 one finds binding data, which are given here for two substances.

With BAF155 (from UniProt P97496 1-1104), the binding result was “binds”.

In the case of Hdac2 (from UniProt P70288 1-488), the binding result is listed as “binds”.
